Measured values published in the supplement of paper PMC10849652.
The list shows a part of the results.

By UniProt entry, the sequences of proteins in these tests, tags left out. Where a name states a change or a piece, a line headed by the entry shows the natural chain unless it says otherwise.
UniProt Q7Z7M9: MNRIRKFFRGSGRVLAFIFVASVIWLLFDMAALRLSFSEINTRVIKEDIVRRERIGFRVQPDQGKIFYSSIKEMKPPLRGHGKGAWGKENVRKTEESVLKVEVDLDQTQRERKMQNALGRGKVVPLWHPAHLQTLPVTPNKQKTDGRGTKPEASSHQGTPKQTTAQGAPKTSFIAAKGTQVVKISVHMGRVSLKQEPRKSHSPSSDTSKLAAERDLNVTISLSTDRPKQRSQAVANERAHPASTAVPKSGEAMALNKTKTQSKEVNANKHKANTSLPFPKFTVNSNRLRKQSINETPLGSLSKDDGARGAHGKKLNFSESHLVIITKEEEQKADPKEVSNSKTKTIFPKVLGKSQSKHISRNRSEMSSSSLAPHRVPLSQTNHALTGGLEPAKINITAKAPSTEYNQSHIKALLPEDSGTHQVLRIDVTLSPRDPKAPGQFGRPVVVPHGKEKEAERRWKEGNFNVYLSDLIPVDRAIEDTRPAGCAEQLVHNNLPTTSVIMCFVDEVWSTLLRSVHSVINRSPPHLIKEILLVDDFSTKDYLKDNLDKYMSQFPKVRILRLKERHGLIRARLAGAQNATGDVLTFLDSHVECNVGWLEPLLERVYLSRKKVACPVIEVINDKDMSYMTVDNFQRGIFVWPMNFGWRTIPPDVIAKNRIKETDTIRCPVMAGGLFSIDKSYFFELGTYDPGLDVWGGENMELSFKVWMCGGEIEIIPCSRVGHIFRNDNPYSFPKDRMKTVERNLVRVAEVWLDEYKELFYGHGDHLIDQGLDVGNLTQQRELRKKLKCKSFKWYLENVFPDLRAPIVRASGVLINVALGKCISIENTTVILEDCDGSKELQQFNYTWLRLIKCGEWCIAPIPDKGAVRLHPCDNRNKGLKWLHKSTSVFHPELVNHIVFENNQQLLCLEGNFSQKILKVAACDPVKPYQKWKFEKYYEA
UniProt P11413, whole entry, looked up: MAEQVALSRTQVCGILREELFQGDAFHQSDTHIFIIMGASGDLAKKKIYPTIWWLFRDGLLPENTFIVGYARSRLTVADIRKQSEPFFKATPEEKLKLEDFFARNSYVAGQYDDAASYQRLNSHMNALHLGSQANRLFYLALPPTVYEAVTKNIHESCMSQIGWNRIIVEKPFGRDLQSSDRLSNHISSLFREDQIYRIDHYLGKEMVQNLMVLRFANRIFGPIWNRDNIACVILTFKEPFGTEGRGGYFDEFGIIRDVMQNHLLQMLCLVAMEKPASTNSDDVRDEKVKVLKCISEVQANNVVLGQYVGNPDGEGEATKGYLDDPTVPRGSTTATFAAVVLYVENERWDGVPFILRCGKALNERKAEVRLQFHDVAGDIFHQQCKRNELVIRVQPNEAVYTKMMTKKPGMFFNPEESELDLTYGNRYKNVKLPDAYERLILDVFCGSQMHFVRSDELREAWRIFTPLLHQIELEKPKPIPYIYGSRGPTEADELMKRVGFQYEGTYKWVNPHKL
UniProt Q9H2C0: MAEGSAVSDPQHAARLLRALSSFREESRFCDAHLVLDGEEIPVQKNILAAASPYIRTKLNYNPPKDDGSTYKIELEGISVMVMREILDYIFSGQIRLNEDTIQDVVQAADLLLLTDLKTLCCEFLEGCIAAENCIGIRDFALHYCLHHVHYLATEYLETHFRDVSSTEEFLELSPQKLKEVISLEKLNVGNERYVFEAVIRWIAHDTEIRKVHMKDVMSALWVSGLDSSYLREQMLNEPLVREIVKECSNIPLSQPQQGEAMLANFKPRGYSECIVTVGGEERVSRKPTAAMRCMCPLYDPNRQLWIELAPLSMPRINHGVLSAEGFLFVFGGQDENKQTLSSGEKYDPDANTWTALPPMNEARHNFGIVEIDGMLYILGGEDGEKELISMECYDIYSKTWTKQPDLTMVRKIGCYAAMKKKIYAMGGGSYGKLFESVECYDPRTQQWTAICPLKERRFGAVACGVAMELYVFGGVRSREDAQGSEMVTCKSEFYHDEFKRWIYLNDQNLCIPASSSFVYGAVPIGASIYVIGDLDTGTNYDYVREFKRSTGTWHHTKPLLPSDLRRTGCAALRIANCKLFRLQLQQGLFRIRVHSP
UniProt Q9UN86: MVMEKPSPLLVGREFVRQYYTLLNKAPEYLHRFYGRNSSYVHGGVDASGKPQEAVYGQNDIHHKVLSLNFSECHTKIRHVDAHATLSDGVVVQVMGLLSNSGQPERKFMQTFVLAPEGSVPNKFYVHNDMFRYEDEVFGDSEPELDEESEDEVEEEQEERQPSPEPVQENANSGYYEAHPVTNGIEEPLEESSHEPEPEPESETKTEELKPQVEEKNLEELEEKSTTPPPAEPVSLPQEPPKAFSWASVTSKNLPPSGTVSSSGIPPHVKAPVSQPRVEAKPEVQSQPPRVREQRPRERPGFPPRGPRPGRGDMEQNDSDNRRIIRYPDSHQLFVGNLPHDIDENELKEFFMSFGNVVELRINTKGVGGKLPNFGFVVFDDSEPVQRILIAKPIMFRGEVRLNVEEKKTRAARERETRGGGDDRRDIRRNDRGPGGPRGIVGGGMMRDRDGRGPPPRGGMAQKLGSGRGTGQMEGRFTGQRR
UniProt P57678: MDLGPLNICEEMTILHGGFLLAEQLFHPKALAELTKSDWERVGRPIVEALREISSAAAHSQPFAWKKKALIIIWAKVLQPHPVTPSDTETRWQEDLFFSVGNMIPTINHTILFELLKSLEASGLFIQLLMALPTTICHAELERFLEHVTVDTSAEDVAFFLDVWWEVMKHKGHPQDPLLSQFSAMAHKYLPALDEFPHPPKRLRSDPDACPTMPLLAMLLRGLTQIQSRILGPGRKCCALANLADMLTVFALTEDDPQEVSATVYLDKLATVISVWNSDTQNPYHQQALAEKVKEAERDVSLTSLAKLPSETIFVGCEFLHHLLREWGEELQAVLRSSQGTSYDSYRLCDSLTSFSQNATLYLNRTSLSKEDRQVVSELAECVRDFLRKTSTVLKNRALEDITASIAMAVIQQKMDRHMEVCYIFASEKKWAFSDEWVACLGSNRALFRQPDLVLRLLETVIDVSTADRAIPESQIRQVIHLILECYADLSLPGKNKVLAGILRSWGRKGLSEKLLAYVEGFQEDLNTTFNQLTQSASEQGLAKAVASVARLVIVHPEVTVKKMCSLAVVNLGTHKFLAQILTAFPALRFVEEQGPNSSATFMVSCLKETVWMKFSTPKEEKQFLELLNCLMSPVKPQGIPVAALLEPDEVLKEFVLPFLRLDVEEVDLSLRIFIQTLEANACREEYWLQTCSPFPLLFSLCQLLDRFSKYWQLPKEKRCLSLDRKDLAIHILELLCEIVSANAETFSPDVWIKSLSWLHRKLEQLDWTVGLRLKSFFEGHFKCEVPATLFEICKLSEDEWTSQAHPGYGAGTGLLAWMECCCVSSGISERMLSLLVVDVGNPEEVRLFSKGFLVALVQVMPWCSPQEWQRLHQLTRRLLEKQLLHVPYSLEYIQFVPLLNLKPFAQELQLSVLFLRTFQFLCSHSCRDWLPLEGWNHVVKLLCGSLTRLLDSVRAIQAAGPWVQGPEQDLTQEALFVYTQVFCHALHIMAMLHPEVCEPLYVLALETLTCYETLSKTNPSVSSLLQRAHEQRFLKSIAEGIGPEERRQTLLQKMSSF
UniProt P85037: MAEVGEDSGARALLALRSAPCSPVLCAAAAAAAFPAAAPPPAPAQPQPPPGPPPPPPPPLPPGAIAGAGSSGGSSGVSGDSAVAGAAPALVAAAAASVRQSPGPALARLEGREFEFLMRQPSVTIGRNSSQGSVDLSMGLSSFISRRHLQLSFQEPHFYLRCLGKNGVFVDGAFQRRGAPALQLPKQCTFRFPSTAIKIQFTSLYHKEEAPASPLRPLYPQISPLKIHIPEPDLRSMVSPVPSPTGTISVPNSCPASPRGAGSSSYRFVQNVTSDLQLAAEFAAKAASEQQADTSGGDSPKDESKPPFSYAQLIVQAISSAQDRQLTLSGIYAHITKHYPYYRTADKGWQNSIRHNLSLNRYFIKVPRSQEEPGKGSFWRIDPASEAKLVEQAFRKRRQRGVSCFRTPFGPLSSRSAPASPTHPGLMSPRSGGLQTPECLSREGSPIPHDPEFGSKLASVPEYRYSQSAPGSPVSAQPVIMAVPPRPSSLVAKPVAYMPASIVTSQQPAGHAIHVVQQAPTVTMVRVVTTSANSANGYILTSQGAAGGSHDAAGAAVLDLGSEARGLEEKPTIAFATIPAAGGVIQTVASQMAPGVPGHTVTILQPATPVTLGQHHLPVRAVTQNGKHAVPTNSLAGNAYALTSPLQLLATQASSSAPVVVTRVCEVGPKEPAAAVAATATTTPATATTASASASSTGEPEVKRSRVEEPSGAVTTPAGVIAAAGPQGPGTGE
UniProt Q6NT46: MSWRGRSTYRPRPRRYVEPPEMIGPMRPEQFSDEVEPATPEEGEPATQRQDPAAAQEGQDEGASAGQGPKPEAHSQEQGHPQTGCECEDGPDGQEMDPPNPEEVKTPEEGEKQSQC
UniProt P02794, whole entry, looked up: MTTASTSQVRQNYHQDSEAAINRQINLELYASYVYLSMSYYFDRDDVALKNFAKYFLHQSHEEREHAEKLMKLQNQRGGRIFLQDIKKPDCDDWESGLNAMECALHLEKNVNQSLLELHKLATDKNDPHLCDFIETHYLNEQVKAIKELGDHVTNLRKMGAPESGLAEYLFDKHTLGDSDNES
UniProt Q8TEQ6: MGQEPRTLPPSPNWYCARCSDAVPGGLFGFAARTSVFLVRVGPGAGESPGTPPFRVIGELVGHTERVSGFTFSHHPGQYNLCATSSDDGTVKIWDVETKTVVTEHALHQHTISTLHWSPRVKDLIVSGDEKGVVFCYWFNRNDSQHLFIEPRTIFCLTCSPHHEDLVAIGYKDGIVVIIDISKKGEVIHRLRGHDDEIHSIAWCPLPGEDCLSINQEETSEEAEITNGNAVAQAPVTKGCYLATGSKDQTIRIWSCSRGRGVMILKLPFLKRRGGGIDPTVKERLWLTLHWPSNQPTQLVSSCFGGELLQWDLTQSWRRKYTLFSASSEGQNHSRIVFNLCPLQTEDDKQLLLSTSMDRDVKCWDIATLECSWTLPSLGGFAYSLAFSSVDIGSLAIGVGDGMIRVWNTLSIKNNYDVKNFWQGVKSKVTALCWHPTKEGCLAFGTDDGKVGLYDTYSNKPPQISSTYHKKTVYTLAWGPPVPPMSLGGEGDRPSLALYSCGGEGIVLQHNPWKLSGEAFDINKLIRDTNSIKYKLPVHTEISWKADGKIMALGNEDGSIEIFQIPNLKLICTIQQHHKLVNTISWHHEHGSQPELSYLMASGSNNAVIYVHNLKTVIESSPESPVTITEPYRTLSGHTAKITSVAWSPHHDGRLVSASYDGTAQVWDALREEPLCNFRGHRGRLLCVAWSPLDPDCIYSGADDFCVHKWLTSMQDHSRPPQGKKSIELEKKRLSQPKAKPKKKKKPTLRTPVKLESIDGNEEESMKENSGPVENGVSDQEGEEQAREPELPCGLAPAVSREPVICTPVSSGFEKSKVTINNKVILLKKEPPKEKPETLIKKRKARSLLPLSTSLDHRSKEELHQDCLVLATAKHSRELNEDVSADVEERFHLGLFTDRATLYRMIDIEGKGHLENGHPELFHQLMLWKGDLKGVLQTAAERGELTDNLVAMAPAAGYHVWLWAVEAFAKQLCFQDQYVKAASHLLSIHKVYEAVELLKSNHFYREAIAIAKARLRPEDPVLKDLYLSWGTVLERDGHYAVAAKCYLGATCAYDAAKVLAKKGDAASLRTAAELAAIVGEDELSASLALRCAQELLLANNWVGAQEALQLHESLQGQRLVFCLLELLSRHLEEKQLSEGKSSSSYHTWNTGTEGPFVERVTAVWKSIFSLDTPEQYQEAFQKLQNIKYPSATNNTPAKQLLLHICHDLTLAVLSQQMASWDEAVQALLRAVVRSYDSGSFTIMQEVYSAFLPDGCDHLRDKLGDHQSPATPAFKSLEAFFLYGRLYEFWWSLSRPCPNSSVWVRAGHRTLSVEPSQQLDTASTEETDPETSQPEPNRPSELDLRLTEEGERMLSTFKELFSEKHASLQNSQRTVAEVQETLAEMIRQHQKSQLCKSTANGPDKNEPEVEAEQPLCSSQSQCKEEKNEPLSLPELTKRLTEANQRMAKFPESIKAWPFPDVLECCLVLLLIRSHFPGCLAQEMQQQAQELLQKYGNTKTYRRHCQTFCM

What was measured:
Experiment in all cases: log2 fold change, soluble protein after heating vs DMSO (PISA); higher = thermal stabilisation; K562 lysate, 10 uM; active = over 0.2 and 3.5 SD of the protein, either way, in both replicates (recomputed)
alvocidib = compound: CN1CC[C@H](c2c(O)cc(O)c3c(=O)cc(-c4ccccc4Cl)oc23)[C@H](O)C1 [alvocidib]
How it was run: (§1)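 Following dounce homogenisation of K562 pellets in PBS pH 7.4 with 1 mM MgCl2, crude extract at 1 mg/mL protein was incubated for 30 min with 10 μM compound. Aliquots were then heated for 3 min over 48°C-58°C and pooled, NP-40 was added to 0.5% at 4°C, and soluble protein was recovered as the supernatant at 21,000xg for 90 min. Channel-sum-equalised TMTpro 16plex LC-MS/MS quantified this protein. Each value, from duplicates, is a log-two fold change in thermal stability relative to solvent controls.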

Tubastatin A = compound: CN1CCc2c(c3ccccc3n2Cc2ccc(C(=O)NO)cc2)C1 [Tubastatin A]
How it was run: as §1

[1] = compound: CNC(=O)C1=CC=CC=C1NC2=NC(=NC=C2Cl)NC3=C(C=C(C=C3)N4CCOCC4)OC
How it was run: as §1

defactinib = compound: CNC(=O)c1ccc(Nc2ncc(C(F)(F)F)c(NCc3nccnc3N(C)S(C)(=O)=O)n2)cc1 [defactinib]
How it was run: as §1

[2] = compound: CNc1nc(-c2ccc3c(N)n[nH]c3c2)cc(N2C[C@@H](C(=O)NC3CCCCC3)CC[C@H]2C)n1
How it was run: as §1

encorafenib = compound: COC(=O)N[C@@H](C)CNc1nccc(-c2cn(C(C)C)nc2-c2cc(Cl)cc(NS(C)(=O)=O)c2F)n1 [encorafenib]
How it was run: as §1

[3] = compound: COC(=O)[C@H](CCSC)NC(=O)C1=C(C=C(C=C1)NC[C@H](CS)N)C2=CC=CC=C2
How it was run: as §1

alisertib = compound: COc1cc(Nc2ncc3c(n2)-c2ccc(Cl)cc2C(c2c(F)cccc2OC)=NC3)ccc1C(=O)O [alisertib]
How it was run: as §1

[4] = compound: COc1cc2nc(-c3cc(F)ccc3O)nc(N[C@@H]3CNC[C@H]3C(C)(C)O)c2cc1OC
How it was run: as §1

gefitinib = compound: COc1cc2ncnc(Nc3ccc(F)c(Cl)c3)c2cc1OCCCN1CCOCC1 [gefitinib]
How it was run: as §1

lapatinib = compound: CS(=O)(=O)CCNCc1ccc(-c2ccc3ncnc(Nc4ccc(OCc5cccc(F)c5)c(Cl)c4)c3c2)o1 [lapatinib]
How it was run: as §1

pictilisib = compound: CS(=O)(=O)N1CCN(Cc2cc3nc(-c4cccc5[nH]ncc45)nc(N4CCOCC4)c3s2)CC1 [pictilisib]
How it was run: as §1

crizotinib = compound: C[C@@H](Oc1cc(-c2cnn(C3CCNCC3)c2)cnc1N)c1c(Cl)ccc(F)c1Cl [crizotinib]
How it was run: as §1

[5] = compound: C[C@H](C1=CC=C(C=C1)C(=O)NC2=C3C=CNC3=NC=C2)N
How it was run: as §1

duvelisib = compound: C[C@H](Nc1ncnc2nc[nH]c12)c1cc2cccc(Cl)c2c(=O)n1-c1ccccc1 [duvelisib]
How it was run: as §1

gandotinib = compound: Cc1cc(Nc2cc(CN3CCOCC3)c3nc(C)c(Cc4ccc(Cl)cc4F)n3n2)n[nH]1 [gandotinib]
How it was run: as §1

tozasertib = compound: Cc1cc(Nc2cc(N3CCN(C)CC3)nc(Sc3ccc(NC(=O)C4CC4)cc3)n2)n[nH]1 [tozasertib]
How it was run: as §1

doramapimod = compound: Cc1ccc(-n2nc(C(C)(C)C)cc2NC(=O)Nc2ccc(OCCN3CCOCC3)c3ccccc23)cc1 [doramapimod]
How it was run: as §1

bafetinib = compound: Cc1ccc(NC(=O)c2ccc(CN3CC[C@H](N(C)C)C3)c(C(F)(F)F)c2)cc1Nc1nccc(-c2cncnc2)n1 [bafetinib]
How it was run: as §1

[6] = compound: Cc1cccc(CC(=O)N2CCc3c2ccc(-c2cn(C)c4ncnc(N)c24)c3F)n1
How it was run: as §1

Measured: log2 fold change

GALNT5 (UniProt Q7Z7M9)
inactive: alvocidib -0.011 | Tubastatin A 0.044 | [1] 0.01 | defactinib 0.015 | [2] -0.045 | encorafenib 0.041 | [3] -0.018 | alisertib 0.025 | [4] -0.026 | gefitinib 0.008 | lapatinib -0.034 | pictilisib -0.027 | crizotinib 0.01 | [5] -0.018 | duvelisib -0.046 | gandotinib 0.025 | tozasertib 0.028 | doramapimod 0.003 | bafetinib 0.015 | [6] 0.066

G6PD isoform 2 (UniProt P11413)
inactive: alvocidib 0.029 | Tubastatin A -0.068 | [1] 0.013 | defactinib 0.031 | [2] 0.009 | encorafenib -0.025 | [3] 0.145 | alisertib 0.021 | [4] -0.017 | gefitinib -0.023 | lapatinib 0.018 | pictilisib -0.022 | crizotinib -0.03 | [5] 0.094 | duvelisib -0.023 | gandotinib -0.063 | tozasertib -0.003 | doramapimod -0.015 | bafetinib 0.037 | [6] -0.035

GAN (UniProt Q9H2C0)
inactive: alvocidib -0.03 | Tubastatin A -0.006 | [1] 0.012 | defactinib -0.02 | [2] 0.013 | encorafenib 0 | [3] 0.004 | alisertib 0.01 | [4] 0.02 | gefitinib 0.009 | lapatinib -0.003 | pictilisib -0.023 | crizotinib -0.002 | [5] -0.085 | duvelisib -0.009 | gandotinib 0.023 | tozasertib 0.017 | doramapimod 0.011 | bafetinib -0.059 | [6] 0.055

GAB2 (UniProt Q9UQC2)
inactive: alvocidib -0.037 | Tubastatin A -0.143 | [1] 0.047 | defactinib -0.046 | [2] -0.017 | encorafenib 0.014 | [3] 0.027 | alisertib -0.03 | [4] 0.034 | gefitinib 0.029 | lapatinib 0.007 | pictilisib -0.023 | crizotinib -0.013 | [5] -0.014 | duvelisib 0.014 | gandotinib 0.031 | tozasertib 0.004 | doramapimod 0.012 | bafetinib 0.003 | [6] 0.064

G3BP2 (UniProt Q9UN86)
inactive: alvocidib 0.022 | Tubastatin A 0.01 | [1] -0.011 | defactinib -0.039 | [2] 0.043 | encorafenib -0.01 | [3] 0.072 | alisertib 0.003 | [4] -0.002 | gefitinib -0.057 | lapatinib -0.006 | pictilisib -0.006 | crizotinib -0.004 | [5] 0.059 | duvelisib 0.017 | gandotinib -0.077 | tozasertib -0.005 | doramapimod -0.031 | bafetinib -0.006 | [6] -0.042

GEMIN4 (UniProt P57678)
inactive: alvocidib 0.017 | Tubastatin A -0.196 | [1] 0.078 | defactinib -0.014 | [2] -0.072 | encorafenib 0.022 | [3] 0.013 | alisertib -0.006 | [4] -0.005 | gefitinib 0.016 | lapatinib -0.031 | pictilisib -0.012 | crizotinib -0.065 | [5] -0.013 | duvelisib 0.004 | gandotinib -0.188 | tozasertib -0.009 | doramapimod 0.032 | bafetinib -0.038 | [6] 0.039

FOXK1 (UniProt P85037)
inactive: alvocidib -0.037 | Tubastatin A -0.116 | [1] 0.025 | defactinib 0.003 | [2] 0.059 | encorafenib 0.009 | [3] 0.09 | alisertib 0.016 | [4] 0.014 | gefitinib 0.003 | lapatinib 0.006 | pictilisib -0.036 | crizotinib 0.025 | [5] -0.024 | duvelisib -0.043 | gandotinib 0.002 | tozasertib 0.009 | doramapimod 0.035 | bafetinib 0.029 | [6] 0.034

GET4 (UniProt Q7L5D6)
inactive: alvocidib 0.015 | Tubastatin A -0.057 | [1] -0.016 | defactinib 0.019 | [2] -0.012 | encorafenib -0.016 | [3] 0.17 | alisertib 0.015 | [4] -0.003 | gefitinib -0.039 | lapatinib -0.013 | pictilisib -0.054 | crizotinib -0.034 | [5] -0.022 | duvelisib 0.064 | gandotinib -0.128 | tozasertib 0.006 | doramapimod -0.038 | bafetinib -0.062 | [6] 0.019

FRG1 (UniProt Q14331)
inactive: alvocidib 0.003 | Tubastatin A -0.011 | [1] 0.075 | defactinib -0.011 | [2] 0.094 | encorafenib 0.011 | [3] 0.018 | alisertib -0.013 | [4] -0.01 | gefitinib 0.079 | lapatinib -0.039 | pictilisib 0.002 | crizotinib 0.053 | [5] -0.009 | duvelisib -0.019 | gandotinib 0.014 | tozasertib 0.015 | doramapimod -0.041 | bafetinib -0.024 | [6] -0.022

GAGE2A (UniProt Q6NT46)
inactive: alvocidib 0.012 | Tubastatin A 0.03 | [1] 0.028 | defactinib 0.07 | [2] 0.062 | encorafenib -0.013 | [3] -0.081 | alisertib 0.018 | [4] -0.017 | gefitinib -0.02 | lapatinib 0.027 | pictilisib -0.091 | crizotinib -0.03 | [5] 0.017 | duvelisib 0.001 | gandotinib -0.007 | tozasertib -0.029 | doramapimod 0.025 | bafetinib -0.018 | [6] -0.022

GEMIN2 (UniProt O14893)
inactive: alvocidib 0.034 | Tubastatin A -0.053 | [1] 0.001 | defactinib -0.006 | [2] 0.013 | encorafenib 0.095 | [3] -0.009 | alisertib -0.017 | [4] 0.009 | gefitinib -0.1 | lapatinib -0.025 | pictilisib -0.029 | crizotinib 0.059 | [5] -0.12 | duvelisib 0.075 | gandotinib 0 | tozasertib -0.021 | doramapimod -0.092 | bafetinib -0.053 | [6] 0.139

FOXK2 (UniProt Q01167)
inactive: alvocidib -0.006 | Tubastatin A 0.063 | [1] 0.01 | defactinib 0.073 | [2] -0.021 | encorafenib 0.004 | [3] 0.09 | alisertib -0.036 | [4] 0.025 | gefitinib -0.007 | lapatinib 0.032 | pictilisib -0.035 | crizotinib 0.05 | [5] 0.011 | duvelisib 0.021 | gandotinib 0.051 | tozasertib 0.051 | doramapimod 0.01 | bafetinib -0.051 | [6] -0.013

FTH1 (UniProt P02794)
inactive: alvocidib 0.026 | Tubastatin A -0.004 | [1] 0.011 | defactinib 0.03 | [2] -0.024 | encorafenib 0.015 | [3] -0.049 | alisertib -0.034 | [4] -0.009 | gefitinib 0.01 | lapatinib -0.004 | pictilisib -0.01 | crizotinib 0.005 | [5] -0.005 | duvelisib 0.044 | gandotinib -0.003 | tozasertib 0.031 | doramapimod 0.009 | bafetinib -0.088 | [6] -0.009

Copied from above (four entries):
GET4 (UniProt Q7L5D6)
inactive: alvocidib 0.015 | Tubastatin A -0.057 | [1] -0.016 | defactinib 0.019 | [2] -0.012 | encorafenib -0.016 | [3] 0.17 | alisertib 0.015 | [4] -0.003 | gefitinib -0.039 | lapatinib -0.013 | pictilisib -0.054 | crizotinib -0.034 | [5] -0.022 | duvelisib 0.064 | gandotinib -0.128 | tozasertib 0.006 | doramapimod -0.038 | bafetinib -0.062 | [6] 0.019

FRG1 (UniProt Q14331)
inactive: alvocidib 0.003 | Tubastatin A -0.011 | [1] 0.075 | defactinib -0.011 | [2] 0.094 | encorafenib 0.011 | [3] 0.018 | alisertib -0.013 | [4] -0.01 | gefitinib 0.079 | lapatinib -0.039 | pictilisib 0.002 | crizotinib 0.053 | [5] -0.009 | duvelisib -0.019 | gandotinib 0.014 | tozasertib 0.015 | doramapimod -0.041 | bafetinib -0.024 | [6] -0.022

GAGE2A (UniProt Q6NT46)
inactive: alvocidib 0.012 | Tubastatin A 0.03 | [1] 0.028 | defactinib 0.07 | [2] 0.062 | encorafenib -0.013 | [3] -0.081 | alisertib 0.018 | [4] -0.017 | gefitinib -0.02 | lapatinib 0.027 | pictilisib -0.091 | crizotinib -0.03 | [5] 0.017 | duvelisib 0.001 | gandotinib -0.007 | tozasertib -0.029 | doramapimod 0.025 | bafetinib -0.018 | [6] -0.022

GEMIN2 (UniProt O14893)
inactive: alvocidib 0.034 | Tubastatin A -0.053 | [1] 0.001 | defactinib -0.006 | [2] 0.013 | encorafenib 0.095 | [3] -0.009 | alisertib -0.017 | [4] 0.009 | gefitinib -0.1 | lapatinib -0.025 | pictilisib -0.029 | crizotinib 0.059 | [5] -0.12 | duvelisib 0.075 | gandotinib 0 | tozasertib -0.021 | doramapimod -0.092 | bafetinib -0.053 | [6] 0.139

Later entries

GALK1 isoform 2 (UniProt P51570)
inactive: alvocidib 0.035 | Tubastatin A -0.132 | [1] -0.005 | defactinib -0.002 | [2] 0 | encorafenib 0.02 | [3] -0.171 | alisertib 0.054 | [4] -0.016 | gefitinib 0.034 | lapatinib -0.002 | pictilisib -0.02 | crizotinib -0.015 | [5] 0.092 | duvelisib -0.028 | gandotinib -0.098 | tozasertib 0.03 | doramapimod 0.039 | bafetinib -0.007 | [6] -0.013

GEMIN5 (UniProt Q8TEQ6)
inactive: alvocidib 0.023 | Tubastatin A -0.21 | [1] 0.027 | defactinib 0.031 | [2] -0.007 | encorafenib 0.011 | [3] 0.057 | alisertib 0.014 | [4] -0.019 | gefitinib -0.032 | lapatinib -0.025 | pictilisib -0.006 | crizotinib -0.069 | [5] -0.029 | duvelisib 0.001 | gandotinib -0.087 | tozasertib 0.009 | doramapimod 0.012 | bafetinib -0.053 | [6] 0.017

FRA10AC1 (UniProt Q70Z53)
inactive: alvocidib -0.037 | Tubastatin A 0.014 | [1] 0.028 | defactinib -0.046 | [2] 0.026 | encorafenib 0.004 | [3] -0.042 | alisertib 0.004 | [4] 0.039 | gefitinib 0.032 | lapatinib 0.006 | pictilisib 0.005 | crizotinib 0.01 | [5] -0.014 | duvelisib -0.027 | gandotinib 0.022 | tozasertib 0.031 | doramapimod 0 | bafetinib -0.023 | [6] -0.066
